# Data taken from PubChem BioAssay AID504834 (National Center for Advancing Translational Sciences (NCATS), 2011).
# Among all 320,000 compounds or so, about 22,000 (6.9%) were called active. This list was built around the results that the source calls inconclusive (neither active nor inactive); the mix of calls is not that of the screen. Calls follow the shape of the dose curve; as a rule, active = well fitted inhibition curve with a large enough effect; inconclusive = small, poorly fitted or top-dose-only effect, or another doubt; inactive = no such curve, though single readings can be large or run the other way. Potencies of inconclusive entries are doubtful fits and often do not repeat.
# Test: Primary qHTS for delayed death inhibitors of the malarial parasite plastid, 96 hour incubation
# Details: P. falciparum luciferase reporter growth; series mostly up to 28.7 µM
# Procedure, shortened: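 Cell-based qHTS: luciferase-tagged P. falciparum in erythrocytes (2% hematocrit, 0.05% parasitemia final) incubated with compounds for 96 hours, 37 C, 5% CO2; luciferase detection reagent then added and luminescence measured.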
# Potency is read from the fitted curve at half-maximal effect.
row,SMILES,Potency
1,CN(C)c1cc(-c2ccc(Cl)c(Cl)c2)oc(=O)c1Cl,inactive
2,Cc1ccc(N(Cc2ccccc2)C(=O)c2cc(S(=O)(=O)N3CCOCC3)ccc2C)cc1,"inconclusive: 18.5 µM [inhibitor, single point]"
3,CCc1[nH]c(C)c(C(C)=O)c1C,"inconclusive: 0.0066 µM [inhibitor, full curve, poor fit]"
4,O=C(CSc1nnc(COc2ccc(F)cc2)o1)N1c2ccccc2CCc2ccccc21,"inconclusive: 16.5 µM [inhibitor, single point]"
5,CN(CCc1ccccn1)C(=O)CCC1CCCN(C(=O)NC2CCCCC2)C1 (stereo not drawn),"inconclusive: 6.57 µM [inhibitor, partial curve, poor fit]"
6,C#CCOCCOCCOCCNc1nc(N2CCN(C(=O)[C@H](CCC(=O)O)n3cc(C(N)CO)nn3)CC2)nc(N2CCN(C(=O)[C@H](Cc3ccc(O)cc3)n3cc(C(N)CC(C)C)nn3)CC2)n1 (stereo partly drawn),inactive
7,CCCCN1C(=O)C(O)(CC(=O)c2ccccn2)c2ccccc21 (stereo not drawn),"inconclusive: 0.37 µM [inhibitor, full curve, poor fit]"
8,O=[N+]([O-])c1ccc(CN2C=NS(=O)(=O)c3ccccc32)cc1,inactive
9,Cn1cc(S(=O)(=O)CC(=O)N2CCCc3ccccc32)c2ccccc21,"inconclusive: 8.28 µM [inhibitor, partial curve, poor fit]"
10,O=C(Nc1ccc(Cl)cc1)N1CCC(c2nc(-c3cccs3)no2)CC1,inactive
11,CN(c1ccccc1)S(=O)(=O)c1ccc(C(=O)NCc2ccco2)cc1,inactive
12,CN1CCC(N(C)C(=S)Nc2ccc(F)cc2)CC1,inactive
13,CC1CCCCN1C(=O)c1ccc(C(=O)Nc2ccc(F)cc2)cc1 (stereo not drawn),"inconclusive: 11.7 µM [inhibitor, single point]"
14,Cc1ccc(-c2nc3c(c(=O)[nH]c(=O)n3CC(C)C)n2CC(C)C)cc1[N+](=O)[O-],"inconclusive: 13.1 µM [inhibitor, partial curve]"
15,O=C1C=C(c2ccc3c(c2)OCCO3)C[C@@H](c2ccc(F)cc2)C1,"inconclusive: 18.5 µM [inhibitor, single point]"
16,CCOc1ccc2nc(NCCCNS(=O)(=O)c3ccccc3)c(C#N)cc2c1,"inconclusive: 0.828 µM [inhibitor, partial curve, poor fit]"
17,COc1ccc(OCCOC(=O)c2cc(S(=O)(=O)N3CCOCC3)c(Cl)cc2Cl)cc1,inactive
18,Cc1ccc(C(=O)NC(=S)N(C)C2CCCCC2)cc1,"inconclusive: 11.7 µM [inhibitor, single point]"

# Quoted at random: 2 records from the list.
row,SMILES,Potency
5,CN(CCc1ccccn1)C(=O)CCC1CCCN(C(=O)NC2CCCCC2)C1 (stereo not drawn),"inconclusive: 6.57 µM [inhibitor, partial curve, poor fit]"
8,O=[N+]([O-])c1ccc(CN2C=NS(=O)(=O)c3ccccc32)cc1,inactive
